Measurements published in PubChem BioAssay AID743255 (National Center for Advancing Translational Sciences (NCATS), 2014).
In all, about 390,000 compounds went through this assay and about 910 (0.23%) were called active. Inconclusive results, whose numbers are uncertain, are shown with a selection of clear calls. Calls follow the shape of the dose curve; as a rule, active = well fitted inhibition curve with a large enough effect; inconclusive = small, poorly fitted or top-dose-only effect; inactive = no such curve, though single readings can be large or run the other way. Potencies of inconclusive entries are doubtful fits and often do not repeat.

By UniProt entry, the sequences of proteins in these tests, tags left out. Where a name states a change or a piece, a line headed by the entry shows the natural chain unless it says otherwise.
UniProt O94782: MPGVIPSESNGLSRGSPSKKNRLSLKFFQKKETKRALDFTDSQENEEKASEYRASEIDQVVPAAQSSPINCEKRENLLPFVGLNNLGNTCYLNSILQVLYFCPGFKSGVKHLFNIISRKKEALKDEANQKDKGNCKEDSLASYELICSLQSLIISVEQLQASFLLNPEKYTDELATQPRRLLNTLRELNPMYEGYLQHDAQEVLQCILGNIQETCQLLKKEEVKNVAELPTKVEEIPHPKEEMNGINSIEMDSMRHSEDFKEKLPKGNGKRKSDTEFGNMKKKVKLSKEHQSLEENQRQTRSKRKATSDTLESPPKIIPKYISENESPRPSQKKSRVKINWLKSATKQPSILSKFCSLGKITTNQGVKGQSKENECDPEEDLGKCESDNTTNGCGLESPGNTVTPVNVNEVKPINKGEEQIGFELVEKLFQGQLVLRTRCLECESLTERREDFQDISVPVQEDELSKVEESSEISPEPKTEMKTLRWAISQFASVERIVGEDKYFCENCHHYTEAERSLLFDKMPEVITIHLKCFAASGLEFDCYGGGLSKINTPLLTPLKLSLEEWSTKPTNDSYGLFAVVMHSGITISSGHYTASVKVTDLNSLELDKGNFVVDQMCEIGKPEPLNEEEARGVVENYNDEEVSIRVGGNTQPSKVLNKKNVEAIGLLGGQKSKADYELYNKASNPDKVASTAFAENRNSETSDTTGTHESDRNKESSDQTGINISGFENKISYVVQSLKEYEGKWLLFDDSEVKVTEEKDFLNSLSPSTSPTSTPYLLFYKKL

biological target: Ubiquitin carboxyl-terminal hydrolase 1 (Homo sapiens) (UniProt O94782); test: Inhibitors of USP1/UAF1: Primary Screen; settings: recombinant USP1/UAF1, Ub-Rhodamine cleavage fluorescence; activity change, negative = inhibition: at 57.1 µM (top of the series); also: nearly all actives have a fitted effect of over 60% in size
How it was run: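 USP1/UAF1 complex (1 nM) preincubated 15 min at room temperature with compound, then Ub-Rho substrate (150 nM final) added. Kinetic fluorescence at 480/540 nm over 6 reads at 60 s intervals; 50 mM HEPES pH 7.8, 0.5 mM EDTA, 0.1 mg/ml BSA, 1 mM TCEP, 0.01% Tween-20.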
% is scaled to controls: 0 for no effect and ±100 for the full control effect; potency is read from the fitted curve at half-maximal effect.

Row | Compound | Potency | activity change, negative = inhibition
1 | CCN1CCc2c(sc(N)c2C(N)=O)C1 | inconclusive: 31.6 µM [inhibitor, single point] | –
2 | COc1ccc(OC)c(C2NC(=O)c3sc(=S)n(-c4ccccc4)c3N2)c1 (centres undefined) | – | inactive: -10.3%
3 | CCCCCCNS(=O)(=O)c1ccccc1Br | inconclusive: 0.282 µM [inhibitor, full curve, poor fit] | –
4 | CCc1ccccc1NC(=O)N1CCC(CN2CCc3ccccc3C2)CC1 | – | inconclusive: -16.4% [inhibitor]
5 | CC(=O)c1ccc(NC(=O)/C(C#N)=C/c2ccncc2)cc1 | inconclusive: 89.1 µM [inhibitor, partial curve, poor fit] | –
6 | Cc1oc(-c2ccccc2)cc1C(=O)Nc1ccc(N(C)C)cc1 | inconclusive: 28.2 µM [inhibitor, partial curve] | –
7 | S=C1NCCc2ccccc2C1c1ccccc1 (centres undefined) | – | inactive: -8.76%
8 | Cc1nn(C)c2c1c(-c1ccccc1)cc(=O)n2Cc1ccccc1Cl | – | inactive: -8.29%
9 | CC(C)(CC(=O)O)CC(=O)Nc1ccc(Cl)c(Cl)c1 | inconclusive: 0.708 µM [inhibitor, full curve, poor fit] | –
10 | FC(F)(F)c1cc(CCN2C(=S)NC[C@@H]2CC2CCCCC2)cc(C(F)(F)F)c1 | inconclusive: 39.8 µM [inhibitor, partial curve] | –
11 | COC(=O)c1c(-c2ccccc2)csc1NC(=O)c1ccco1 | inconclusive: 5.01 µM [inhibitor, partial curve] | –
12 | CCC(Sc1nc(=O)cc(N)n1-c1cccc(C)c1)C(=O)Nc1cc(C)on1 (centres undefined) | inconclusive: 0.631 µM [inhibitor, full curve, poor fit] | –
13 | CCc1ccc(-c2csc(-c3c[nH]c4ccccc34)n2)cc1 | inconclusive: 22.4 µM [inhibitor, partial curve] | –
14 | COc1ccc(CCNC(=O)c2nnn(CC(=O)Nc3cccc(F)c3)c2N)cc1OC | inconclusive: 35.5 µM [inhibitor, single point] | –
15 | O=C(Nc1nnc(-c2ccco2)o1)c1ccc(Cl)s1 | – | inactive: -17.6%
16 | CS(=O)(=O)N(CC(=O)Nc1ccc(Br)cc1)c1ccccc1Br | – | inactive: -18.7%
17 | O=S(=O)(Nc1ccc2ccccc2c1)N1CCCCC1 | inconclusive: 39.8 µM [inhibitor, single point] | –
18 | COCCN(CCOC)S(=O)(=O)c1ccc(C(=O)Nc2ccc([N+](=O)[O-])cc2OC)cc1 | inconclusive: 158 µM [inhibitor, partial curve] | –
19 | O=S(=O)(NCCCN1CCOCC1)c1ccc(Cl)cc1 | inconclusive: 7.94 µM [inhibitor, partial curve, poor fit] | –
20 | O=C(c1ccc(CS(=O)(=O)c2ccc(Br)cc2)o1)N1CCOCC1 | – | inconclusive: -10.9% [inhibitor]
21 | Cc1ccc(N2C(N)=C(C#N)C(c3ccsc3)C3=C2CC(C)(C)CC3=O)cc1 (centres undefined) | inconclusive: 35.5 µM [inhibitor, partial curve] | –
22 | COc1ccc(NC(=O)CSc2ccc3nnc(-c4cccnc4)n3n2)cc1OC | inconclusive: 7.08 µM [inhibitor, partial curve, poor fit] | –

Row | Compound | Potency | activity change, negative = inhibition
23 | Cc1ccccc1NC(=O)Cc1nc(COC(=O)CSc2ccc(F)cc2)cs1 | inconclusive: 0.631 µM [inhibitor, full curve] | –
24 | Cc1cc([N+](=O)[O-])c2ccccc2c1NS(=O)(=O)c1ccccc1 | inconclusive: 50.1 µM [inhibitor, partial curve, poor fit] | –
25 | CN1CCN(C(=O)c2ccc(N(Cc3ccc(Cl)cc3)S(C)(=O)=O)cc2)CC1 | inconclusive: 22.4 µM [inhibitor, partial curve] | –
26 | CN1CCN(C(=O)c2cc(COc3ccc(F)cc3Cl)on2)CC1c1ccccc1 (centres undefined) | – | inactive: 0.0972%
27 | COc1ccc(NC(=O)CN(c2ccccc2F)S(=O)(=O)c2ccc(C)cc2)c(OC)c1 | inconclusive: 22.4 µM [inhibitor, partial curve, poor fit] | –
28 | Cc1nnc(N/N=C\c2ccc(-c3ccccc3[N+](=O)[O-])o2)n1N | inconclusive: 31.6 µM [inhibitor, single point] | –
29 | CC1(C(=O)O)Oc2cccnc2NC1=O (centres undefined) | inconclusive: 5.01 µM [inhibitor, partial curve] | –
30 | Cc1cc(C)cc(NC(=O)Nc2ccc3c(c2)N(C)C(=O)CS3)c1 | – | inactive: -24.5%
31 | CCCCNC(=S)Nc1cccc2cnccc12 | – | inactive: -17.2%
32 | Cc1ccc(Cl)c(NC(=O)Nc2csc3c2CCCC3)c1 | inconclusive: 28.2 µM [inhibitor, partial curve, poor fit] | –
33 | Cn1c(Cn2c(=O)sc3ccccc32)nnc1SCC(=O)N1CCOCC1 | inconclusive: 50.1 µM [inhibitor, partial curve, poor fit] | –
34 | O=C(NCc1ccccc1)C1=C[C@H](c2ccc(C(F)(F)F)cc2)C[C@H](OCc2ccc(CO)cc2)O1 | – | inactive: -33%
35 | CC(C)C(c1nnnn1Cc1cccs1)N1CCN(C(=O)c2ccco2)CC1 (centres undefined) | inconclusive: 3.98 µM [inhibitor, single point] | –
36 | O=C1OCCC1=CN1CCCCC1 | inconclusive: 50.1 µM [inhibitor, partial curve] | –
37 | O=C(NCc1ccco1)C12CN(Cc3ccccc3)CC1C(c1ccc([N+](=O)[O-])cc1)=NO2 (centres undefined) | inconclusive: 7.08 µM [inhibitor, partial curve, poor fit] | –
38 | COCCNC(=O)c1ccc(-n2c(-c3ccccc3)cc3c2CCCCC3)cc1 | – | inactive: 4.74%
39 | CCCCS(=O)(=O)N1C2=NC(C(=O)OC)=C(C(=O)OC)[C@@H]3N(C)c4ccc(OC)cc4[C@]23C[C@H]1C(=O)OC | inconclusive: 44.7 µM [inhibitor, partial curve, poor fit] | –
40 | COc1cccc(N2C(=O)CSC23C(=O)N(Cc2ccccc2)c2ccccc23)c1 (centres undefined) | inconclusive: 25.1 µM [inhibitor, partial curve] | –
41 | COc1ccc(C(=O)/C=C/c2cn(CC(O)CN(CC(C)C)CC(C)C)c3ccccc23)cc1 (centres undefined) | inconclusive: 35.5 µM [inhibitor, partial curve] | –
42 | CC[C@H](C)/C=C(C)/C=C/C(=O)Cc1cc(O)c(C)c(O)c1C=O | inconclusive: 35.5 µM [inhibitor, partial curve] | –
43 | O=C(Nc1ccc(Cl)c(Cl)c1)c1ccccc1 | inconclusive: 3.55 µM [inhibitor, full curve] | –
44 | O=c1c2ccccc2sn1-c1ccc(S(=O)(=O)N2CCCCC2)cc1 | – | inactive: -13.2%

Row | Compound | Potency | activity change, negative = inhibition
45 | O=C(O)CCC(=O)Nc1ccc(NC(=O)c2ccc(Cl)cc2Cl)c(Cl)c1 | – | inactive: -3.39%
46 | CC(=O)C1=C(C)NC(SCC(=O)c2ccc(Cl)c(Cl)c2)=C(C#N)C1c1ccco1 (centres undefined) | inconclusive: 35.5 µM [inhibitor, single point] | –
47 | O=C(NCCO)/C(=C\c1cccc([N+](=O)[O-])c1)NC(=O)c1cccs1 | inconclusive: 14.1 µM [inhibitor, partial curve, poor fit] | –
48 | CC(C)Oc1ccc(CNC(=O)c2ccc(NC(=O)N3CCSc4ncccc43)cc2)cc1 | inconclusive: 20 µM [inhibitor, partial curve, poor fit] | –
49 | COc1ccc(-c2oc3ccc(-c4cc(OC)c(OC)c(OC)c4)cc3c2C#Cc2ccccn2)cc1 | inconclusive: 5.01 µM [inhibitor, partial curve, poor fit] | –
50 | Cn1nccc1NC(=O)CSCC(=O)O | inconclusive: 8.91 µM [inhibitor, partial curve, poor fit] | –
51 | CCOCCCNC(=O)c1ccc(CS(=O)(=O)Cc2cccc(C)c2)o1 | inconclusive: 25.1 µM [inhibitor, partial curve] | –
52 | CN(CC#CC(O)(c1ccccc1)c1ccccc1)C(C)(C)C | inconclusive: 0.794 µM [inhibitor, full curve, poor fit] | –
53 | O=C(CNC(=O)C1CCCCC1)OCC(=O)c1ccc(Cl)s1 | inconclusive: 6.31 µM [inhibitor, partial curve] | –
54 | COc1ccc(C(=O)Nc2nc3c(s2)CCc2cc(OC)ccc2-3)cc1 | inconclusive: 50.1 µM [inhibitor, partial curve, poor fit] | –
55 | COc1ccc(/C=C2\SC(=O)N(CCNC(=O)Cn3[nH]c(=O)c4ccccc4c3=O)C2=O)cc1 | inconclusive: 7.08 µM [inhibitor, single point] | –
56 | COc1ccc(C(=O)NCc2c(C)oc(C)c2C(=O)O)cc1 | inconclusive: 39.8 µM [inhibitor, single point] | –
57 | C#CCOCCOCCOCCNc1nc(N2CCOCC2)nc(N2CCN(C(=O)CCCCCCCCCCNC(=O)[C@H](CO)n3cc(CCCSC)nn3)CC2)n1 | inconclusive: 7.94 µM [inhibitor, partial curve] | –
58 | Cc1ccc(N2CCN(C(=O)c3c4c(nc5ccccc35)C(=O)N(C3CCCCC3)C4)CC2)c(C)c1 | – | inactive: -8.19%
59 | Cc1ccc(C)c(N2CCN(C(=O)Cn3c(-c4cccs4)cc4ccccc43)CC2)c1 | inconclusive: 12.6 µM [inhibitor, partial curve] | –
60 | O=C(Nc1ccccc1Cl)OC1CCCCC1 | inconclusive: 7.94 µM [inhibitor, partial curve, poor fit] | –
61 | CCS(=O)(=O)N1CCC(C(=O)N2CCOCC2)CC1 | inconclusive: 2 µM [inhibitor, partial curve] | –
62 | Cc1cccc(C(=O)N2CCc3cc(CNC(=O)Cc4ccc(F)cc4)ccc32)c1 | inconclusive: 0.282 µM [inhibitor, full curve, poor fit] | –
63 | CN(C1CCCCC1)S(=O)(=O)c1ccc(=S)[nH]c1 | – | inactive: -14.5%
64 | COc1cc(OC)cc(C(=O)Nc2ccccc2C(=O)NCc2cccnc2)c1 | inconclusive: 7.94 µM [inhibitor, single point] | –

Ordered by molar mass (falling): part of the list above
Row | Compound | Potency | activity change, negative = inhibition
58 | Cc1ccc(N2CCN(C(=O)c3c4c(nc5ccccc35)C(=O)N(C3CCCCC3)C4)CC2)c(C)c1 | – | inactive: -8.19%
51 | CCOCCCNC(=O)c1ccc(CS(=O)(=O)Cc2cccc(C)c2)o1 | inconclusive: 25.1 µM [inhibitor, partial curve] | –
52 | CN(CC#CC(O)(c1ccccc1)c1ccccc1)C(C)(C)C | inconclusive: 0.794 µM [inhibitor, full curve, poor fit] | –
